The source of these data is PubChem BioAssay AID1487 (National Center for Advancing Translational Sciences (NCATS), 2009).

The assay in a line: qHTS Assay for Modulators of Lamin A Splicing. Particulars: HeLa LMNA splicing GFP/RFP minigene ratio, 48 h. Summed up: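 S3 HeLa cells stably expressing lamin A-EGFP splicing minigene plus DsRed2, 600 cells/well, 48 h compound exposure at 37C. Laser-scanning cytometry; analysed as GFP (500-530 nm)/RFP (575-640 nm) total intensity ratio; 0.5% DMSO vehicle.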
The mark [1] stands for this setting: measured here: RFP viability control channel.
[2] abbreviates: measured here: GFP splicing reporter channel.

The list shows a part of the results. These are further read-outs of the screen, such as a control signal, another cell line or another target. No call is given for them. Compounds called inactive in the main read-out are mostly missing here. The note in brackets gives the kind of curve behind each potency; many fits are weak.

A word on the AC50: it is the concentration giving half of the maximal activity seen. For the compound `O=C(O)c1cc(=O)c2c(OCC(O)COc3cccc4oc(C(=O)O)cc(=O)c34)cccc2o1`, the AC50 under setting [1] was 0.708 µM [falling, partial curve, poor fit]. Take `NC(=S)Cc1nc(-c2ccccc2)cs1`: under setting [1], the AC50 is 12.6 µM [rising, partial curve, poor fit]. Consider `Fc1ccc(-n2ncc3c(N4CCN(c5ccccc5F)CC4)ncnc32)cc1`, for which the AC50 under setting [2] is 0.00316 µM [falling, full curve, poor fit]. Take `N#CCCn1nc(-c2ccc(Br)cc2)cc1Nc1ccccc1NC(=O)C(F)(F)F`: the AC50 reads like this: under setting [2], 14.1 µM [rising, partial curve]; under setting [1], 10 µM [rising, partial curve]. As to `CNCCC(Oc1ccccc1C)c1ccccc1` (centres undefined), the AC50 under setting [2] was 0.0141 µM [falling, full curve, poor fit].

`COC(=O)CCCC1=CC2=CC(=O)C(C)(OC(=O)c3cccs3)C(=O)C2=CN1Cc1ccc2c(c1)OCO2` (centres undefined): the AC50 under setting [1] is 0.000891 µM [falling, full curve, poor fit]. Still for that read-out and setting: then `CCN(CC)S(=O)(=O)c1cc(C(=O)N2CCc3ccccc32)ccc1Cl`, with 12.6 µM [rising, partial curve]; and `CCC(C)c1ccc(NC(=S)NCc2ccccn2)cc1` (centres undefined), with 3.16 µM [falling, partial curve]; and `Cc1ccc(C2c3[nH]c4ccccc4c3CCN2C(=O)CCc2ccccc2)cc1` (centres undefined), with 14.1 µM [rising, partial curve, poor fit].

As to `CCc1ccc(NC(=O)CS(=O)CC(=O)NCC2OCCc3ccccc32)cc1` (centres undefined), the AC50 was 35.5 µM [rising, single point] under setting [2] and 35.5 µM [rising, single point] under setting [1]. As for `CC(C)(C)CC(=O)Nc1cc(S(=O)(=O)N2CCCCCC2)ccc1Cl`, the AC50 runs as follows: under setting [2], 11.2 µM [rising, partial curve, poor fit]; under setting [1], 25.1 µM [rising, single point].

For `Cc1nn(CC2CC2)c(=O)n1-c1ccccc1`, the AC50 under setting [2] was 0.00447 µM [rising, full curve, poor fit]. With `CCOC(=O)c1cnc(SCC(=O)Nc2cccc(OC)c2)nc1N`, under setting [1], the AC50 was 35.5 µM [rising, single point].

Turning to `O=S(c1ccc2ccccc2c1)c1cnns1` (centres undefined), the AC50 by setting is: under setting [2], 1.12 µM [falling, partial curve]; under setting [1], 28.2 µM [falling, partial curve]. On to `Cc1onc(-c2ccccc2Cl)c1C(=O)NC(=S)Nc1ccccc1C(N)=O`, for which the AC50 under setting [2] was 1.41 µM [rising, partial curve]. Turning to `Cc1ccc(S(=O)(=O)N2CCN(Cc3nc4sc(C)c(C)c4c(=O)[nH]3)CC2)cc1`, under setting [1], the AC50 was 0.0355 µM [rising, partial curve, poor fit]. For `Cc1ccc(NC(=O)c2ccc3c(c2)OCCO3)cc1S(=O)(=O)Nc1cccc(Cl)c1`, the AC50 under setting [2] is 35.5 µM [falling, single point].

As to `COC(=O)N/N=C/c1ccc(OCCSc2ccc(Cl)cc2)c(OC)c1`, the AC50 under setting [1] was 14.1 µM [rising, single point]. In the case of `C[C@@H](C(=O)O)[C@H]1C[C@]1(C)[C@H](NC(=O)OCc1ccccc1)c1ccccc1`, the AC50 was 8.91 µM [falling, partial curve, poor fit] under setting [2] and 22.4 µM [falling, partial curve, poor fit] under setting [1]. As for `Cc1ncsc1CCC(=O)N1CCCC(C(=O)c2ccc3c(c2)OCO3)C1` (centres undefined), the AC50 under setting [2] is 0.01 µM [falling, full curve, poor fit] and the AC50 under setting [1] was 0.01 µM [falling, full curve, poor fit].

As for `O=S(=O)(Nc1ccc(-c2nc3cccnc3s2)cc1)c1ccc(Cl)s1`, under setting [1], the AC50 is 12.6 µM [rising, partial curve].

Regarding `CCn1c(C)nc2cc(C(=O)N/N=C/c3ccccc3C)ccc21`, the AC50 under setting [1] was 0.708 µM [falling, full curve].

`COc1ccc(Nc2nc3ccccc3nc2-n2nc(C)cc2C)cc1`: under setting [1], the AC50 was 12.6 µM [falling, partial curve, poor fit].

For `COC(=O)C1NN=C(C(=O)c2ccc(Cl)cc2)C1c1ccc(OC)cc1` (centres undefined), under setting [1], the AC50 was 35.5 µM [rising, single point]. For `O=C(c1nn2c(C(F)(F)F)cc(-c3cccs3)nc2c1Cl)N1CCCc2ccccc21`, the AC50 under setting [1] is 22.4 µM [rising, single point].

Take `COc1ccccc1/C=C/C(=O)NCCC1=CCCCC1`: under setting [2], the AC50 was 1.58 µM [falling, full curve, poor fit]. Consider `COc1ccc(NS(=O)(=O)c2ccc3c(c2)NC(=O)CO3)cc1`, for which the AC50 under setting [1] is 35.5 µM [rising, single point]. Turning to `CN(C)/N=C/c1cc(Cl)cc([N+](=O)[O-])c1O`, the AC50 is 11.2 µM [rising, single point] under setting [2] and 20 µM [rising, partial curve] under setting [1]. Turning to `Cc1cccc(C)c1OCC(=O)Nc1ccc(NC(=O)c2ccco2)cc1`, the AC50 runs as follows: under setting [2], 3.55 µM [falling, full curve]; under setting [1], 3.98 µM [falling, full curve]. With `CCOc1cc(-c2nnc(SCC(=O)NCCCOC)nc2-c2ccc(OC)c(OCC)c2)ccc1OC`, under setting [1], the AC50 is 35.5 µM [rising, single point]. As for `CCOC(=O)/C(C#N)=C/c1cc2ccc(C)cc2nc1Cl`, the AC50 is 22.4 µM [rising, single point] under setting [2] and 12.6 µM [rising, partial curve, poor fit] under setting [1]. Turning to `O=C(Nc1ccccc1Br)C1CCN(C(=O)Cc2ccccc2)CC1`, the AC50 under setting [2] was 1.78 µM [rising, full curve, poor fit]. `O=C(NCc1ccccc1Cl)c1cccc(NC(=O)c2ccccc2)c1`: the AC50 under setting [1] is 35.5 µM [rising, single point].

Turning to `Cc1nc2ccc(NC(=O)CCS(=O)(=O)c3ccc(Cl)cc3)cc2s1`, the AC50 is 12.6 µM [rising, partial curve, poor fit] under setting [2] and 12.6 µM [rising, partial curve] under setting [1]. Consider `O=C1c2ccc3c4c(ccc(c24)C(=O)N1c1ccc2ccccc2c1)CC3`, for which the AC50 under setting [2] was 14.1 µM [falling, partial curve, poor fit]. `CCCSc1ccc(-c2nn(-c3ccccc3)cc2/C=C(/C#N)C(=O)N2CCOCC2)cc1`: the AC50 under setting [1] is 10 µM [rising, partial curve]. Take `CCCCC[C@H](CC(=O)NO)C(=O)N[C@H](C(=O)N1CCC[C@H]1CO)C(C)C`: the AC50 by setting is: under setting [2], 0.00562 µM [falling, full curve, poor fit]; under setting [1], 14.1 µM [rising, partial curve, poor fit]. On to `Cc1ccccc1C(=O)N/N=C/c1ccc(OCC(=O)N2CCCCC2)cc1`, for which the AC50 runs as follows: under setting [2], 1.41 µM [falling, full curve, poor fit]; under setting [1], 1 µM [falling, full curve, poor fit]. As for `COc1cccc(-n2nnnc2SCC(=O)Nc2nc3c(s2)CCCC3)c1`, the AC50 under setting [1] is 17.8 µM [rising, single point]. On the same count and under the same terms, then `N#CC1=C(N)n2c(s/c(=C\c3cccs3)c2=O)=C(C#N)C1c1cccs1` (centres undefined), with 35.5 µM [rising, single point].

Consider `O=C(NCc1ccc(F)cc1)c1ccc(N2CCc3ccccc32)c([N+](=O)[O-])c1`, for which the AC50 was 35.5 µM [rising, single point] under setting [2] and 22.4 µM [rising, partial curve] under setting [1]. Turning to `COc1ccc2[nH]cc(CCNc3ncncc3-c3ccc4c(c3)OCO4)c2c1`, the AC50 runs as follows: under setting [2], 3.16 µM [falling, full curve, poor fit]; under setting [1], 2.51 µM [falling, full curve, poor fit]. For `COc1ccc(C(CNC(=O)c2ccc(S(=O)(=O)N3CCOCC3)cc2)N2CCCCC2)cc1` (centres undefined), the AC50 under setting [2] was 10 µM [rising, single point]. On to `CC(C)OCC1CC(CC(=O)NC(=S)Nc2cccc([N+](=O)[O-])c2)C(=O)O1` (centres undefined), for which the AC50 reads like this: under setting [2], 15.8 µM [rising, partial curve]; under setting [1], 25.1 µM [rising, single point]. For the compound `COc1ccc(CNc2nc3ccccc3n2Cc2ccc(Cl)cc2)cc1OC`, the AC50 runs as follows: under setting [2], 6.31 µM [rising, single point]; under setting [1], 11.2 µM [rising, partial curve].

For `COc1cccc(NC(=O)Nc2ccc3c(c2)nc(C)n3C)c1`, the AC50 is 0.01 µM [falling, full curve, poor fit] under setting [2] and 0.01 µM [falling, full curve] under setting [1]. Turning to `COc1cccc(Cn2c(=O)c(-c3ccc(F)cc3)nc3cnc(N4CCOCC4)nc32)c1`, the AC50 under setting [1] is 7.08 µM [falling, full curve, poor fit].

With `CCc1ccc(NC(=O)CSc2nc3ccccc3c(=O)n2CCC(=O)NC2CCCCC2)cc1`, the AC50 under setting [2] was 4.47 µM [falling, single point]. Turning to `CC(=O)C1=C(C)NC(SCc2cccc3ccccc23)=C(C#N)C1c1ccco1` (centres undefined), the AC50 by setting is: under setting [2], 14.1 µM [rising, single point]; under setting [1], 17.8 µM [rising, partial curve]. On to `CCc1ccc(-c2nc(CN3CCC(C(=O)N4CCN(c5ccccc5)CC4)CC3)c(C)o2)cc1`, for which the AC50 runs as follows: under setting [2], 12.6 µM [rising, partial curve]; under setting [1], 35.5 µM [rising, single point].

Regarding `Cc1nccn1-c1cc(C(C)(C)C)nc2c(-c3ccccc3)cnn12`, under setting [1], the AC50 is 0.00398 µM [rising, full curve, poor fit]. On to `O=C(NC(=O)N1CCOCC1)c1ccccc1`, for which the AC50 under setting [2] is 0.0126 µM [falling, full curve, poor fit]. For the compound `Brc1cccc(CNCCCN2CCOCC2)c1`, the AC50 under setting [2] was 35.5 µM [falling, single point].

For the compound `S=C(NCc1ccco1)Nc1ccc(Br)cc1Cl`, the AC50 under setting [2] is 0.00562 µM [falling, full curve, poor fit] and the AC50 under setting [1] was 0.00447 µM [falling, full curve, poor fit].
